PubChem BioAssay AID504764 – Drosophila RNAi Screening Center | 2011
The screen tested about 22,000 reagents; below is a random part of those that have a named target and a result. In the full data, 403 (1.9%) were called active. 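Unnormalised raw counts per well; ratio z-scores behind the hit calls and whether each hit raises or lowers signal are not deposited.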 No sequences are given here. The record does not give: the amount of reagent.

- Assay: 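Genome-wide screen for regulators of Notch-driven gene expression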 (primary screen)
- Cells: Drosophila Kc167 cells
- Reagents: long dsRNA against Drosophila genes
- Time to read-out: about 5 days (4 days dsRNA, then 24 h after transfection)
- Treatment: transfection of constitutively active membrane-tethered Notch lacking the extracellular domain, read 24 h later
- Detection: 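Firefly luciferase from an E(spl)m3 reporter with active Notch, plus control-promoter and uninduced reporter wells for normalisation; unnormalised counts, duplicate wells a and b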
- Reading the numbers: induced reporter light, run 1, well a and induced reporter light, run 1, well b: higher = more light from the Notch target reporter with active Notch; control promoter light, run 1, well a and control promoter light, run 1, well b: higher = more light from the viral control promoter (cell number, transfection, viability); uninduced reporter light, run 1, well a: higher = more light from the Notch target reporter without active Notch
- Hit rule: 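Hit if the duplicate-averaged log2 ratio of induced to control-promoter light gives a plate-wise z beyond ±2, or induced to uninduced beyond ±1.8; weak-control or discordant-duplicate wells dropped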
- Calls: active = modifier hit (raised or lowered Notch signal); inactive = not a hit

gene	DRSC id	induced reporter light, run 1, well a	induced reporter light, run 1, well b	control promoter light, run 1, well a	control promoter light, run 1, well b	uninduced reporter light, run 1, well a	activity call
CG3916	DRSC15520	56325	69045	65495	55860	4510	inactive
Syngr (Synaptogyrin)	DRSC06003	82110	96675	97885	97135	7080	inactive
Uvrag (UV-resistance associated gene)	DRSC02932	3.10e5	2.80e5	2.25e5	2.13e5	21728	inactive
Pgant4 (Polypeptide N-Acetylgalactosaminyltransferase 4)	DRSC00717	1.28e5	1.27e5	1.45e5	1.21e5	8355	inactive
Unc-115a (Uncoordinated 115a)	DRSC12749	1.67e5	1.90e5	1.94e5	1.85e5	10295	inactive
CG13713	DRSC08322	1.98e5	2.15e5	2.72e5	1.99e5	8735	inactive
KrT95D (Krueppel target at 95D)	DRSC16725	2.33e5	1.94e5	2.22e5	2.51e5	14130	inactive
CG3164	DRSC00572	1.49e5	1.45e5	1.14e5	60810	12138	inactive
Klp10A (Kinesin-like protein at 10A)	DRSC19601	1.76e5	1.49e5	2.06e5	1.75e5	9735	inactive
Dfd (Deformed)	DRSC12593	98240	86515	91240	66155	5270	inactive
vret (vreteno)	DRSC15640	1.67e5	1.87e5	2.28e5	2.21e5	16880	inactive
CG9286	DRSC16467	1.27e5	73430	98550	90845	9735	inactive
Targ3 (Terminal ADP-ribose protein glycohydrolase 3)	DRSC11471	2.12e5	2.11e5	3.86e5	2.84e5	19842	inactive
E(bx) (Enhancer of bithorax)	DRSC08172	1.11e5	1.48e5	2.34e5	1.57e5	7710	inactive
E(bx) (Enhancer of bithorax)	DRSC08509	76775	64945	1.29e5	1.70e5	3890	inactive
E(bx) (Enhancer of bithorax)	DRSC08583	59810	48500	89445	1.07e5	4165	inactive
CG31224	DRSC15272	1.54e5	1.47e5	2.29e5	2.06e5	15100	inactive
CG31224	DRSC16290	2132	950	2860	2345	250	inactive
tou (toutatis)	DRSC06006	1.93e5	1.52e5	1.85e5	1.63e5	13305	inactive
CG7747	DRSC07038	1.02e5	1.27e5	2.46e5	2.44e5	9720	inactive
fred (friend of echinoid)	DRSC00349	2.15e5	1.72e5	2.06e5	1.99e5	13880	inactive
fred (friend of echinoid)	DRSC00599	1.61e5	1.41e5	2.10e5	1.94e5	10155	inactive
fred (friend of echinoid)	DRSC00601	1.40e5	1.25e5	1.59e5	1.35e5	6365	inactive
fred (friend of echinoid)	DRSC00602	96465	79285	95620	74885	6760	inactive
CG8785	DRSC07266	1.69e5	1.80e5	1.51e5	1.54e5	12982	inactive
Scamp	DRSC20286	70515	68265	65110	58245	9855	inactive
kra (krasavietz)	DRSC12320	41610	38700	31735	29325	3695	inactive
MESK2 (Misexpression suppressor of KSR 2)	DRSC04258	67020	45895	40205	56550	3155	inactive
CSN8 (COP9 signalosome subunit 8)	DRSC02257	2.21e5	2.10e5	1.84e5	2.06e5	22995	inactive
CG12992	DRSC19512	62300	60300	72200	88405	8210	inactive
AOX2 (Aldehyde oxidase 2)	DRSC15338	3.24e5	2.69e5	2.67e5	3.82e5	23250	inactive
CG7778	DRSC03067	1.87e5	2.32e5	1.58e5	1.97e5	15432	inactive
CG14491	DRSC06462	86005	79635	1.12e5	1.17e5	6938	inactive
CG13858 (retired record)	DRSC14708	1.60e5	1.31e5	1.68e5	1.73e5	10880	inactive
CG13858 (retired record)	DRSC14709	1.39e5	1.66e5	1.58e5	1.55e5	11385	inactive
CG13858 (retired record)	DRSC14710	1.98e5	1.59e5	1.72e5	2.08e5	12320	inactive
CG13858 (retired record)	DRSC14711	1.66e5	1.48e5	2.09e5	1.74e5	10765	inactive
CG9416	DRSC07339	79575	90835	1.31e5	1.31e5	12545	inactive
MBD-R2	DRSC14180	46975	53385	51550	48240	2500	inactive
CARPA (Carbonic anhydrase-related protein A)	DRSC17905	1.63e5	1.35e5	2.85e5	2.58e5	10178	inactive
CARPA (Carbonic anhydrase-related protein A)	DRSC21633						inactive
Ccs (Copper chaperone for superoxide dismutase)	DRSC06692	1.84e5	1.74e5	1.81e5	2.40e5	16165	inactive
stw (straw)	DRSC04842	1.69e5	1.62e5	1.74e5	1.41e5	12080	inactive
stw (straw)	DRSC04843	1.80e5	1.76e5	1.59e5	1.65e5	13500	inactive
stw (straw)	DRSC22527						inactive
Usp15-31 (Ubiquitin specific protease 15/31)	DRSC04426	38635	52615	49950	54020	3670	inactive
Usp15-31 (Ubiquitin specific protease 15/31)	DRSC04532	56430	46585	25175	28555	5655	inactive
strat (stratum)	DRSC03069	1.53e5	1.89e5	1.10e5	1.26e5	20945	inactive
CG8908	DRSC07297	38390	34445	31070	42755	4178	inactive
tap (target of Poxn)	DRSC11402	1.63e5	1.35e5	2.01e5	1.79e5	6715	inactive
Ir56d (Ionotropic receptor 56d)	DRSC06590	6750	6265	9360	11395	1525	inactive
CG13376	DRSC17901	1.16e5	1.51e5	2.53e5	2.52e5	9875	inactive
ck (crinkled)	DRSC03509	2.17e5	2.31e5	1.85e5	1.86e5	16360	inactive
ken (ken and barbie)	DRSC04696	69185	58720	16725	16820	6792	inactive
acj6 (abnormal chemosensory jump 6)	DRSC20304	2.10e5	1.93e5	2.49e5	2.44e5	14270	inactive
Tssk (Testis-specific serine/threonine kinase)	DRSC14784	2.51e5	2.22e5	2.56e5	2.16e5	15490	inactive
wupA (wings up A)	DRSC20385	63610	78195	73790	60970	8260	inactive
Oatp74D (Organic anion transporting polypeptide 74D)	DRSC09491	1.83e5	1.42e5	2.30e5	2.07e5	16800	inactive
Oatp74D (Organic anion transporting polypeptide 74D)	DRSC10883	1.29e5	92255	51010	63645	8335	inactive
Ube4B (Ubiquitination factor E4B)	DRSC03277	2.85e5	2.30e5	1.87e5	1.79e5	14820	inactive
CG13708	DRSC08317	2.08e5	2.14e5	2.23e5	1.92e5	9615	inactive
CG30376	DRSC05086	67530	76090	1.10e5	99240	3135	inactive
RhoGAP71E (Rho GTPase activating protein at 71E)	DRSC10232	1.50e5	1.10e5	1.03e5	1.24e5	10210	inactive
RhoGAP71E (Rho GTPase activating protein at 71E)	DRSC10837	1.19e5	1.10e5	1.37e5	1.44e5	5490	inactive
RhoGAP71E (Rho GTPase activating protein at 71E)	DRSC10838	1.59e5	2.18e5	2.77e5	2.41e5	8345	inactive
